Binding data for three molecules are collected here from article PMC4793267.

The chains behind the UniProt entries cited, without tags or fusion partners. Where a name states a change or a piece, a line headed by the entry shows the natural chain unless it says otherwise. A line that says so, or that is headed by a name, gives the form on record, which may keep a tag or linker.
UniProt O18381: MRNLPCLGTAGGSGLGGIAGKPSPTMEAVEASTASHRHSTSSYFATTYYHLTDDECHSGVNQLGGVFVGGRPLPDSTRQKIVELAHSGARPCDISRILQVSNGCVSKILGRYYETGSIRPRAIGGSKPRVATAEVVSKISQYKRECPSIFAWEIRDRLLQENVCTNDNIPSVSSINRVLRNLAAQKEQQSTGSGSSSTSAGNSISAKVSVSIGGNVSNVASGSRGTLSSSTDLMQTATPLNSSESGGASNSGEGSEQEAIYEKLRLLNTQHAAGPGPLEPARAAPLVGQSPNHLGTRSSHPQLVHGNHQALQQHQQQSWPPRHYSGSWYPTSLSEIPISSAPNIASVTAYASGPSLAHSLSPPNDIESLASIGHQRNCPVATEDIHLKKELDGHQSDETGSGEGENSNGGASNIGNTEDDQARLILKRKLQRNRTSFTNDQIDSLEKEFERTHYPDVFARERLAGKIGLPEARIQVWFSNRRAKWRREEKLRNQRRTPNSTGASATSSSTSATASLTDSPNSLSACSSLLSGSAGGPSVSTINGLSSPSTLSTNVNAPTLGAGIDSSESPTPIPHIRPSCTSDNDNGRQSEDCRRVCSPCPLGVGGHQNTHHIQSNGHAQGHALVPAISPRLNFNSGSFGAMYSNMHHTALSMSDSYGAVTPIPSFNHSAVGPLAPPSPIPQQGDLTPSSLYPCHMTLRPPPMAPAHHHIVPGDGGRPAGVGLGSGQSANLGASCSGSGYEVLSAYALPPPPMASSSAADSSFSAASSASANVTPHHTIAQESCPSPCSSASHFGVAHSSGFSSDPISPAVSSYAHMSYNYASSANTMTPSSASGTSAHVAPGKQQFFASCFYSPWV
HA-tagged Eyeless (Ey) (O18381, form named): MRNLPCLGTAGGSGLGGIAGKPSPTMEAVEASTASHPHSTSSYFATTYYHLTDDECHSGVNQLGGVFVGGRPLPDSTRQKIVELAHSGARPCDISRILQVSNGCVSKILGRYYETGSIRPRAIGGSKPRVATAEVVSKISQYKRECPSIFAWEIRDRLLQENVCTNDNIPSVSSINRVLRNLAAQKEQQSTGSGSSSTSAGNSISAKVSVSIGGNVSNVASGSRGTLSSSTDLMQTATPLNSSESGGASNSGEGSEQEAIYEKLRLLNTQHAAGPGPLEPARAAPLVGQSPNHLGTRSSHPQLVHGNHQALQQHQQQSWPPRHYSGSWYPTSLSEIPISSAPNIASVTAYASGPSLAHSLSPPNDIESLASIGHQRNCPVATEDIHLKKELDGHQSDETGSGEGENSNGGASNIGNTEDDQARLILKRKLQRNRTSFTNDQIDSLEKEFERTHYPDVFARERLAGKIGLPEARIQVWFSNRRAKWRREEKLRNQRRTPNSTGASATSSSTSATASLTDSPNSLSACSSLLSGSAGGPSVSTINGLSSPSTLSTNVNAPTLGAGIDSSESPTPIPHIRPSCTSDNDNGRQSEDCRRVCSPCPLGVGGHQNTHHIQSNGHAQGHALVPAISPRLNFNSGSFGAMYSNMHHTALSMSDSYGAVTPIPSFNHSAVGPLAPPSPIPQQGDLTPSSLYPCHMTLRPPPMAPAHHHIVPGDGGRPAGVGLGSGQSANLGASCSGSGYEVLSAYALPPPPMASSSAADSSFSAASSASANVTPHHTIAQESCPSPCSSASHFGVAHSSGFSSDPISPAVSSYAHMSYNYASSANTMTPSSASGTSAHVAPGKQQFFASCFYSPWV

Results are given in words; binding and its absence hold for the method and conditions named. In cells and extracts the contact can be indirect. Binding calls can cover weak binding; strength is not graded here. Where a sequence is shown, tags or fusion partners need not be part of it.

Holding throughout (experiment): co-IP; Flag-Eya (wild type or mutant) co-expressed with HA-Ey, Myc-So or HA-Dac in S2 cells; lysis in Pierce IP lysis buffer; IP with anti-Flag agarose beads 2 h at 4 °C; western blot with anti-HA, anti-Myc, anti-Flag
Background: A western blot detects proteins with antibodies after separation by electrophoresis.

Test [1] addresses Flag-tagged Eya^ΔTPM (Eya with the threonine phosphatase motif deleted) (Drosophila) (UniProt Q05201).
Test [2] addresses Flag-tagged Eya^ΔPST/TPM (Eya with the PST/TPM domain deleted) (Drosophila) (UniProt Q05201).
Test [3] has as its target Flag-tagged Eya^Y4 (threonine phosphatase-dead Eya, four tyrosines to alanine) (Drosophila) (UniProt Q05201).
Test [4] has as its target T1, Flag-tagged Eyes absent (Eya), wild type (Drosophila) (UniProt Q05201).
T1 sequence: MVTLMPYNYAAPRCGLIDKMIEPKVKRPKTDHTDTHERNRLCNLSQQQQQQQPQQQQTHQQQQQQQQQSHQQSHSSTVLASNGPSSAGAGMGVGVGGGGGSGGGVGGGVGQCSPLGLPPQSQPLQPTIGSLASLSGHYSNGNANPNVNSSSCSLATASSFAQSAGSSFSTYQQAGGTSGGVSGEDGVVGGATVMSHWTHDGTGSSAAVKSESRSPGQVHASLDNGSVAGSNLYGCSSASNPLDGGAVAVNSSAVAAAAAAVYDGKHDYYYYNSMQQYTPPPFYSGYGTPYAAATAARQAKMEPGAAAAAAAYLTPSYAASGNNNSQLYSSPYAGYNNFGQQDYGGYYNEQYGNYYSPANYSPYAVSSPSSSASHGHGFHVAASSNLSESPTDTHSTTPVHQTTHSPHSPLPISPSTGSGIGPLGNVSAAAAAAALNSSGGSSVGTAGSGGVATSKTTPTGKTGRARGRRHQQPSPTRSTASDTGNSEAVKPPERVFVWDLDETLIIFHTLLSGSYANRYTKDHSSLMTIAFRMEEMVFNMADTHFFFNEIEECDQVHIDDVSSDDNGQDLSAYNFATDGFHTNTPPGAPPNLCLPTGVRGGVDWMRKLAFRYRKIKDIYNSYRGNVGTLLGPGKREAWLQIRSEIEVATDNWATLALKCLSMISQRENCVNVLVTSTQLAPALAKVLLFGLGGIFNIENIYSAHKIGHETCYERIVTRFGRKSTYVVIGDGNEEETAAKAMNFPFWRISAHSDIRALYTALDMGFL

As to “HA-tagged Eyeless (Ey) (from UniProt O18381 1-857)”, the binding result in test [1], in test [2] and in test [3] was “binds” throughout.
On to HA-tagged Dachshund (Dac) (Drosophila), for which, in test [4], the binding entry is “binds”.

B1: Myc-tagged Sine oculis (So) (protein, UniProt Q27350 1-416)
chain: MLQHPATDFYDLAAANAAAVLTARHTPPYSPTGLSGSVALHNNNNNNSSTSNNNNSTLDIMAHNGGGAGGGLHLNSSSNGGGGGGVVSGGGSGGRENLPSFGFTQEQVACVCEVLQQAGNIERLGRFLWSLPQCDKLQLNESVLKAKAVVAFHRGQYKELYRLLEHHHFSAQNHAKLQALWLKAHYVEAEKLRGRPLGAVGKYRVRRKFPLPRTIWDGEETSYCFKEKSRSVLRDWYSHNPYPSPREKRDLAEATGLTTTQVSNWFKNRRQRDRAAEHKDGSTDKQHLDSSSDSEMEGSMLPSQSAQHQQQQQQQQHSPGNSSGNNNGLHQQQLQHVAAEQGLQHHPHQPHPASNIANVAATKSSGGGGGGGVSAAAAAQMQMPPLTAAVAYSHLHSVMGAMPMTAMYDMGEYQHL
Consider B1, for which the binding result in test [1], in test [2] and in test [3] was “binds” throughout.
